Assay results as given in PMC4063256.
No constants are given. Whether binding was seen depends on the method and setting. In cells and extracts the contact can be indirect. Here binding means that the protein was enriched with, or labelled near, the bait; the list need not be complete. Blank lines part the entries; values can stand above or below the molecule they belong to.

The chains behind the UniProt entries cited, without tags or fusion partners.
UniProt O00571: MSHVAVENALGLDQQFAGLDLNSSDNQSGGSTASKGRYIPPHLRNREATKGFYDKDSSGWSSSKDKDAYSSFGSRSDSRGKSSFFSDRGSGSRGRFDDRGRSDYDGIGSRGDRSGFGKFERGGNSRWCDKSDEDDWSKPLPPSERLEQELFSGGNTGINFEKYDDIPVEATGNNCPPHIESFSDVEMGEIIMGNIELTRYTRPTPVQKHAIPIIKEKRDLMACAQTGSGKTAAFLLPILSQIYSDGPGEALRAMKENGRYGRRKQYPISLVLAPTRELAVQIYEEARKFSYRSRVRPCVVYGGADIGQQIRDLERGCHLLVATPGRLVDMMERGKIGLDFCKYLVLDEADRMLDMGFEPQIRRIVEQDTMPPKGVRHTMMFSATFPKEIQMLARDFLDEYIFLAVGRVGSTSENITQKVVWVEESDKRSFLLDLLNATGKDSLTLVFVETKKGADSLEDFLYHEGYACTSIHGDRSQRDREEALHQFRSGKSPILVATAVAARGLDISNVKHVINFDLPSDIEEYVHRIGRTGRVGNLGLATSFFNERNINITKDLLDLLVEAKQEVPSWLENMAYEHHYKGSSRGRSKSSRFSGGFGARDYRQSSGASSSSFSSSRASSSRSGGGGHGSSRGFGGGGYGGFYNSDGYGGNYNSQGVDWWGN
UniProt Q8WXI9: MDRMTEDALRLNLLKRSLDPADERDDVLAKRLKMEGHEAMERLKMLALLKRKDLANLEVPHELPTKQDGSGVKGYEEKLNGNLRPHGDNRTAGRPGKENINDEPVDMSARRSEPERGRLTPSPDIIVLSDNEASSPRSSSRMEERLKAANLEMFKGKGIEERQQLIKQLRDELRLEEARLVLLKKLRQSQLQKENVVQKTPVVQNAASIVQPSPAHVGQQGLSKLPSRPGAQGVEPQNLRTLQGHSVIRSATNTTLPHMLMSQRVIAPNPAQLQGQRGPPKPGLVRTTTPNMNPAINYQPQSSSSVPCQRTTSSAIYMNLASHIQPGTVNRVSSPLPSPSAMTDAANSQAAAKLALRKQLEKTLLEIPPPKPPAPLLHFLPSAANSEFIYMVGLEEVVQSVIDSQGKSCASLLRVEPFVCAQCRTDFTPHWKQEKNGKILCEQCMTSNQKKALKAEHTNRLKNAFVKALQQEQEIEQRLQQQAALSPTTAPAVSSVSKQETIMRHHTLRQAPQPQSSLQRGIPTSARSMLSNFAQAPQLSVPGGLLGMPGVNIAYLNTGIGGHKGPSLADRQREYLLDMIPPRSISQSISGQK
UniProt Q5T5U3: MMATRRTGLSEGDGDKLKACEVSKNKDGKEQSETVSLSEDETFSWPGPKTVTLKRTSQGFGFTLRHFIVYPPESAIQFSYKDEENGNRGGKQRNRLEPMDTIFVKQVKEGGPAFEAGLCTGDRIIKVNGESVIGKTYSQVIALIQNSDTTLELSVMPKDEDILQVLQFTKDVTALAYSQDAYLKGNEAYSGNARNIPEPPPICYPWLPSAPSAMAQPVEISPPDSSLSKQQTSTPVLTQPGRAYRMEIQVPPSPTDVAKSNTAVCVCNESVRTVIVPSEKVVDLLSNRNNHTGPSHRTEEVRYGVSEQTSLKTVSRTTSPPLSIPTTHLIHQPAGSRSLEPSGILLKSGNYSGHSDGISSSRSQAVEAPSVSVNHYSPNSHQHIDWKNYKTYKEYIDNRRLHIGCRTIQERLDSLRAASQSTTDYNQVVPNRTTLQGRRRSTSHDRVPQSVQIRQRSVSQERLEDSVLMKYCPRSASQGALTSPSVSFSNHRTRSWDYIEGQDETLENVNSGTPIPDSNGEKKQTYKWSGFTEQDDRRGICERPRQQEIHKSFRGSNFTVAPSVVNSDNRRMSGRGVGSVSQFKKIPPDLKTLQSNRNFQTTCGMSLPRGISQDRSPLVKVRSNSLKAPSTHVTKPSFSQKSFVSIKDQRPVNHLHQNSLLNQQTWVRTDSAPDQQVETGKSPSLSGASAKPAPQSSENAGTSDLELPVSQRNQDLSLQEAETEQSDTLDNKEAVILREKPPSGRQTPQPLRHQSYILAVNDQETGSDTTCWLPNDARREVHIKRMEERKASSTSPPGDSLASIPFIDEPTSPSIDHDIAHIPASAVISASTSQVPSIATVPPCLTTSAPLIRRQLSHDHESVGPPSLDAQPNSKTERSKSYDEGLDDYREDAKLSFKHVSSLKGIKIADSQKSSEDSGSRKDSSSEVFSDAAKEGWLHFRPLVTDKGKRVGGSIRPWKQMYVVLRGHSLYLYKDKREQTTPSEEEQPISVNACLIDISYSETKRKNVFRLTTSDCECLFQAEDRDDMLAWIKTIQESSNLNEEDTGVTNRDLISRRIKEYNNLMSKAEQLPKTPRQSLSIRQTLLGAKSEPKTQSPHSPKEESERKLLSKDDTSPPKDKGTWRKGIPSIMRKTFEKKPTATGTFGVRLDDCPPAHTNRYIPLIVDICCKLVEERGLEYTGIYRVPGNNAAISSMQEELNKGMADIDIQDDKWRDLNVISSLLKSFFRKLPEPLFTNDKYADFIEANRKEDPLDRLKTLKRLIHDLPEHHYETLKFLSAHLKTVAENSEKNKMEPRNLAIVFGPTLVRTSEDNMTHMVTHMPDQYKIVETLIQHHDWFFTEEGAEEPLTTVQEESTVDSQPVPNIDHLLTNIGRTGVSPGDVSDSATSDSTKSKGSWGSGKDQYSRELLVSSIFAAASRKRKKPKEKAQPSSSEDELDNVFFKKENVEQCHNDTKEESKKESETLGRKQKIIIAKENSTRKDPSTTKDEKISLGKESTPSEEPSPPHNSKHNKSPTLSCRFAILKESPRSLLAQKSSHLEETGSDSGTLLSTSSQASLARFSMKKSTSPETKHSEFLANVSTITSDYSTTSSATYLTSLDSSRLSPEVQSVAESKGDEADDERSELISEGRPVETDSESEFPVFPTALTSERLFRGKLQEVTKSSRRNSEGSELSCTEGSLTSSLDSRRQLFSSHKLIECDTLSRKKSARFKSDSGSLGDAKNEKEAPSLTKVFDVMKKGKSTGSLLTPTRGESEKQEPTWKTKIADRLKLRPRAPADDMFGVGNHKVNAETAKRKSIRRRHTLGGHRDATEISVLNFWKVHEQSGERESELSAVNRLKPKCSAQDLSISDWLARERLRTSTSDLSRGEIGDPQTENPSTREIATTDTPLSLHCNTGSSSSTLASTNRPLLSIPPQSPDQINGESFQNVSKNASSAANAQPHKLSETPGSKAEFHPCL
UniProt Q14839: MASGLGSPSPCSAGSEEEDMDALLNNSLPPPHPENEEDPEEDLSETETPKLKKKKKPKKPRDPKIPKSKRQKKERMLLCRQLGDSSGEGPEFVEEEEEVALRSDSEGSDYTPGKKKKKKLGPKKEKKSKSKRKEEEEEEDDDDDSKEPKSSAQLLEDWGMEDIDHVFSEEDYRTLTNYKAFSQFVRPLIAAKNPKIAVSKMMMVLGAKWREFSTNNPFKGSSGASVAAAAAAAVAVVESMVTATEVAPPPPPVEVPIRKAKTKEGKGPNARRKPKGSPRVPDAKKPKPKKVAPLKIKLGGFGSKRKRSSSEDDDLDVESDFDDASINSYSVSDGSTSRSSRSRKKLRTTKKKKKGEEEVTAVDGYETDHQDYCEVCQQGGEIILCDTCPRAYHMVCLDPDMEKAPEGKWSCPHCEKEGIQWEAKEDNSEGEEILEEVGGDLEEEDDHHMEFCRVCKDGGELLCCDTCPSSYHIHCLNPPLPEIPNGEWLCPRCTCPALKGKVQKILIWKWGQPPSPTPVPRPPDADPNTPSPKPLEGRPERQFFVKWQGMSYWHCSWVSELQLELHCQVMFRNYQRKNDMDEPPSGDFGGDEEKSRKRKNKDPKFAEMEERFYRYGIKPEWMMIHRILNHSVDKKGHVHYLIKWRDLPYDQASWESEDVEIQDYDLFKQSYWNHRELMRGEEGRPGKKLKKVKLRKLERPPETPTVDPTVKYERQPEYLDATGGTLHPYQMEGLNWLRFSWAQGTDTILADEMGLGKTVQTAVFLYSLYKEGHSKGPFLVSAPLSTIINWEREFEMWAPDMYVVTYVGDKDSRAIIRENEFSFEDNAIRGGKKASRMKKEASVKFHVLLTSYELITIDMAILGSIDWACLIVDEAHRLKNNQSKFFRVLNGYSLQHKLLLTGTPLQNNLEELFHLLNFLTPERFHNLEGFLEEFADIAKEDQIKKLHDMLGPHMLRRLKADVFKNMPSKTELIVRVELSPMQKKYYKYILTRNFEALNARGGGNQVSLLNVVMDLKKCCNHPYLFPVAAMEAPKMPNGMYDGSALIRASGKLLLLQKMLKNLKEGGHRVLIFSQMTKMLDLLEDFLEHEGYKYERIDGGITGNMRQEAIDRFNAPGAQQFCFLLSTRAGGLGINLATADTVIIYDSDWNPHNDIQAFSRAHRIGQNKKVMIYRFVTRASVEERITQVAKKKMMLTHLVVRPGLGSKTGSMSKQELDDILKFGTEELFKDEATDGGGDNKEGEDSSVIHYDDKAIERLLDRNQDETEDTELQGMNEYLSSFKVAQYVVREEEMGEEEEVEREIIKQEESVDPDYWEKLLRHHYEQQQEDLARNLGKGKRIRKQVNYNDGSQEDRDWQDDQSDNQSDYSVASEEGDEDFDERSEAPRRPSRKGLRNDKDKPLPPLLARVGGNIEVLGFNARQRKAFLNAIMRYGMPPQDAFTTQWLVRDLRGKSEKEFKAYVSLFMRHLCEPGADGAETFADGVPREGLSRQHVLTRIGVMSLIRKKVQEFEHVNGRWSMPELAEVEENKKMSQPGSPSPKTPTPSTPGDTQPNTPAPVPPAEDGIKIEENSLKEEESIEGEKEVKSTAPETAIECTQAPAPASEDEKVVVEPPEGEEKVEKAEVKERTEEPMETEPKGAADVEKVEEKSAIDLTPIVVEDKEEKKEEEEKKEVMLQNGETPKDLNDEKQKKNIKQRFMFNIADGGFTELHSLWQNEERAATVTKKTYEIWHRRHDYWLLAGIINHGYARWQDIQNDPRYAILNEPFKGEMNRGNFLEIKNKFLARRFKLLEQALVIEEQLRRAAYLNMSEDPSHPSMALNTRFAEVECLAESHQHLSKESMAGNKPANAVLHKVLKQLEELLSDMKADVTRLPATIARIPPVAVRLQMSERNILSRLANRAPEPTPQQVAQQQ

Target: Flag-HA-tagged CtBP2 (UniProt P56545)
Experiment: affinity purification with mass spectrometry; whole cell lysates of HeLa/FH-CtBP2 cells (untreated or treated with TSA); Flag antibody, elution with Flag peptide, then HA antibody beads; on-bead trypsin digestion and LC-MS; normal HeLa as control

binding: binds
Molecule: Human Dead-Box Rna Helicase Ddx3x (from UniProt O00571 1-662)

binding: binds
Molecule: Histone deacetylase 2 (from UniProt Q92769 1-488)

binding: binds
Molecule: Transcriptional repressor p66-beta (from UniProt Q8WXI9 1-593)

binding: binds
Molecule: Rho GTPase-activating protein 21 (from UniProt Q5T5U3 1-1958)

binding: binds
Molecule: Mi-2 protein (CHD4) (from UniProt Q14839 1-1912)

binding: binds
B1: WD repeat-containing protein C2orf44 isoform 1 (protein, UniProt Q9H6R7 1-721)
chain: MELGKGKLLRTGLNALHQAVHPIHGLAWTDGNQVVLTDLRLHSGEVKFGDSKVIGQFECVCGLSWAPPVADDTPVLLAVQHEKHVTVWQLCPSPMESSKWLTSQTCEIRGSLPILPQGCVWHPKCAILTVLTAQDVSIFPNVHSDDSQVKADINTQGRIHCACWTQDGLRLVVAVGSSLHSYIWDSAQKTLHRCSSCLVFDVDSHVCSITATVDSQVAIATELPLDKICGLNASETFNIPPNSKDMTPYALPVIGEVRSMDKEATDSETNSEVSVSSSYLEPLDLTHIHFNQHKSEGNSLICLRKKDYLTGTGQDSSHLVLVTFKKAVTMTRKVTIPGILVPDLIAFNLKAHVVAVASNTCNIILIYSVIPSSVPNIQQIRLENTERPKGICFLTDQLLLILVGKQKLTDTTFLPSSKSDQYAISLIVREIMLEEEPSITSGESQTTYSTFSAPLNKANRKKLIESLSPDFCHQNKGLLLTVNTSSQNGRPGRTLIKEIQSPLSSICDGSIALDAEPVTQPASLPRHSSTPDHTSTLEPPRLPQRKNLQSEKETYQLSKEVEILSRNLVEMQRCLSELTNRLHNGKKSSSVYPLSQDLPYVHIIYQKPYYLGPVVEKRAVLLCDGKLRLSTVQQTFGLSLIEMLHDSHWILLSADSEGFIPLTFTATQEIIIRDGSLSRSDVFRDSFSHSPGAVSSLKVFTGLAAPSLDTTGCCNHVDGMA

binding: binds
B2: Zinc finger transcription factor TRPS1 (protein, UniProt Q9UHF7 1-1281)
chain: MVRKKNPPLRNVASEGEGQILEPIGTESKVSGKNKEFSADQMSENTDQSDAAELNHKEEHSLHVQDPSSSSKKDLKSAVLSEKAGFNYESPSKGGNFPSFPHDEVTDRNMLAFSSPAAGGVCEPLKSPQRAEADDPQDMACTPSGDSLETKEDQKMSPKATEETGQAQSGQANCQGLSPVSVASKNPQVPSDGGVRLNKSKTDLLVNDNPDPAPLSPELQDFKCNICGYGYYGNDPTDLIKHFRKYHLGLHNRTRQDAELDSKILALHNMVQFSHSKDFQKVNRSVFSGVLQDINSSRPVLLNGTYDVQVTSGGTFIGIGRKTPDCQGNTKYFRCKFCNFTYMGNSSTELEQHFLQTHPNKIKASLPSSEVAKPSEKNSNKSIPALQSSDSGDLGKWQDKITVKAGDDTPVGYSVPIKPLDSSRQNGTEATSYYWCKFCSFSCESSSSLKLLEHYGKQHGAVQSGGLNPELNDKLSRGSVINQNDLAKSSEGETMTKTDKSSSGAKKKDFSSKGAEDNMVTSYNCQFCDFRYSKSHGPDVIVVGPLLRHYQQLHNIHKCTIKHCPFCPRGLCSPEKHLGEITYPFACRKSNCSHCALLLLHLSPGAAGSSRVKHQCHQCSFTTPDVDVLLFHYESVHESQASDVKQEANHLQGSDGQQSVKESKEHSCTKCDFITQVEEEISRHYRRAHSCYKCRQCSFTAADTQSLLEHFNTVHCQEQDITTANGEEDGHAISTIKEEPKIDFRVYNLLTPDSKMGEPVSESVVKREKLEEKDGLKEKVWTESSSDDLRNVTWRGADILRGSPSYTQASLGLLTPVSGTQEQTKTLRDSPNVEAAHLARPIYGLAVETKGFLQGAPAGGEKSGALPQQYPASGENKSKDESQSLLRRRRGSGVFCANCLTTKTSLWRKNANGGYVCNACGLYQKLHSTPRPLNIIKQNNGEQIIRRRTRKRLNPEALQAEQLNKQQRGSNEEQVNGSPLERRSEDHLTESHQREIPLPSLSKYEAQGSLTKSHSAQQPVLVSQTLDIHKRMQPLHIQIKSPQESTGDPGNSSSVSEGKGSSERGSPIEKYMRPAKHPNYSPPGSPIEKYQYPLFGLPFVHNDFQSEADWLRFWSKYKLSVPGNPHYLSHVPGLPNPCQNYVPYPTFNLPPHFSAVGSDNDIPLDLAIKHSRPGPTANGASKEKTKAPPNVKNEGPLNVVKTEKVDRSTQDELSTKCVHCGIVFLDEVMYALHMSCHGDSGPFQCSICQHLCTDKYDFTTHIQRGLHRNNAQVEKNGKPKE

binding: binds
B3: Ligand-dependent corepressor isoform 1 (protein, UniProt Q96JN0 1-433)
chain: MQRMIQQFAAEYTSKNSSTQDPSQPNSTKNQSLPKASPVTTSPTAATTQNPVLSKLLMADQDSPLDLTVRKSQSEPSEQDGVLDLSTKKSPCAGSTSLSHSPGCSSTQGNGRPGRPSQYRPDGLRSGDGVPPRSLQDGTREGFGHSTSLKVPLARSLQISEELLSRNQLSTAASLGPSGLQNHGQHLILSREASWAKPHYEFNLSRMKFRGNGALSNISDLPFLAENSAFPKMALQAKQDGKKDVSHSSPVDLKIPQVRGMDLSWESRTGDQYSYSSLVMGSQTESALSKKLRAILPKQSRKSMLDAGPDSWGSDAEQSTSGQPYPTSDQEGDPGSKQPRKKRGRYRQYNSEILEEAISVVMSGKMSVSKAQSIYGIPHSTLEYKVKERLGTLKNPPKKKMKLMRSEGPDVSVKIELDPQGEAAQSANESKNE

binding: binds
B4: Transcription factor E2F7 (protein, UniProt Q96AV8 1-911)
chain: MEVNCLTLKDLISPRQPRLDFAVEDGENAQKENIFVDRSRMAPKTPIKNEPIDLSKQKKFTPERNPITPVKFVDRQQAEPWTPTANLKMLISAASPDIRDREKKKGLFRPIENKDDAFTDSLQLDVVGDSAVDEFEKQRPSRKQKSLGLLCQKFLARYPSYPLSTEKTTISLDEVAVSLGVERRRIYDIVNVLESLHLVSRVAKNQYGWHGRHSLPKTLRNLQRLGEEQKYEEQMAYLQQKELDLIDYKFGERKKDGDPDSQEQQLLDFSEPDCPSSSANSRKDKSLRIMSQKFVMLFLVSKTKIVTLDVAAKILIEESQDAPDHSKFKTKVRRLYDIANVLTSLALIKKVHVTEERGRKPAFKWIGPVDFSSSDEELVDVSASVLPELKRETYGQIQVCAKQKLARHGSFNTVQASERIQRKVNSEPSSPYREEQGSGGYSLEIGSLAAVYRQKIEDNSQGKAFASKRVVPPSSSLDPVAPFPVLSVDPEYCVNPLAHPVFSVAQTDLQAFSMQNGLNGQVDVSLASAASAVESLKPALLAGQPLVYVPSASLFMLYGSLQEGPASGSGSERDDRSSEAPATVELSSAPSAQKRLCEERKPQEEDEPATKRQSREYEDGPLSLVMPKKPSDSTDLASPKTMGNRASIPLKDIHVNGQLPAAEEISGKATANSLVSSEWGNPSRNTDVEKPSKENESTKEPSLLQYLCVQSPAGLNGFNVLLSGSQTPPTVGPSSGQLPSFSVPCMVLPSPPLGPFPVLYSPAMPGPVSSTLGALPNTGPVNFSLPGLGSIAQLLVGPTAVVNPKSSTLPSADPQLQSQPSLNLSPVMSRSHSVVQQPESPVYVGHPVSVVKLHQSPVPVTPKSIQRTHRETFFKTPGSLGDPVLKRRERNQSRNTSSAQRRLEIPSGGAD

binding: binds
B5: Zinc finger E-box-binding homeobox 1 isoform a (protein, UniProt P37275 1-1124)
chain: MADGPRCKRRKQANPRRNNVTNYNTVVETNSDSDDEDKLHIVEEESVTDAADCEGVPEDDLPTDQTVLPGRSSEREGNAKNCWEDDRKEGQEILGPEAQADEAGCTVKDDECESDAENEQNHDPNVEEFLQQQDTAVIFPEAPEEDQRQGTPEASGHDENGTPDAFSQLLTCPYCDRGYKRFTSLKEHIKYRHEKNEDNFSCSLCSYTFAYRTQLERHMTSHKSGRDQRHVTQSGCNRKFKCTECGKAFKYKHHLKEHLRIHSGEKPYECPNCKKRFSHSGSYSSHISSKKCISLIPVNGRPRTGLKTSQCSSPSLSASPGSPTRPQIRQKIENKPLQEQLSVNQIKTEPVDYEFKPIVVASGINCSTPLQNGVFTGGGPLQATSSPQGMVQAVVLPTVGLVSPISINLSDIQNVLKVAVDGNVIRQVLENNQANLASKEQETINASPIQQGGHSVISAISLPLVDQDGTTKIIINYSLEQPSQLQVVPQNLKKENPVATNSCKSEKLPEDLTVKSEKDKSFEGGVNDSTCLLCDDCPGDINALPELKHYDLKQPTQPPPLPAAEAEKPESSVSSATGDGNLSPSQPPLKNLLSLLKAYYALNAQPSAEELSKIADSVNLPLDVVKKWFEKMQAGQISVQSSEPSSPEPGKVNIPAKNNDQPQSANANEPQDSTVNLQSPLKMTNSPVLPVGSTTNGSRSSTPSPSPLNLSSSRNTQGYLYTAEGAQEEPQVEPLDLSLPKQQGELLERSTITSVYQNSVYSVQEEPLNLSCAKKEPQKDSCVTDSEPVVNVIPPSANPINIAIPTVTAQLPTIVAIADQNSVPCLRALAANKQTILIPQVAYTYSTTVSPAVQEPPLKVIQPNGNQDERQDTSSEGVSNVEDQNDSDSTPPKKKMRKTENGMYACDLCDKIFQKSSSLLRHKYEHTGKRPHECGICKKAFKHKHHLIEHMRLHSGEKPYQCDKCGKRFSHSGSYSQHMNHRYSYCKREAEERDSTEQEEAGPEILSNEHVGARASPSQGDSDERESLTREEDEDSEKEEEEEDKEMEELQEEKECEKPQGDEEEEEEEEEVEEEEVEEAENEGEEAKTEGLMKDDRAESQASSLGQKVGESSEQVSEEKTNEA
